This experiment deals with HEK293A TEAD-LUC reporter. Briefly: TEAD-luciferase reporter activity (YAP activation), robust Z score vs plate; higher = stronger YAP/TEAD activation. The settings on record: 24 h. On the technique in general: In a reporter assay the amount or activity of a reporter protein is the signal.

Structures can show the parent of a compound that is named as a salt. The list shows a part of the results. Single values are uncertain here, since repeats match poorly.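 The human kidney-derived cells carry a stably integrated construct of eight TEAD-binding elements driving luciferase, read by luminescence in a drug-repurposing library screen. A compound counts as a hit when its signal is more than five robust Z scores above the plate mean.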

On to `NC(=O)c1ncn([C@@H]2O[C@H](CO)[C@@H](O)[C@H]2O)c1O` [Mizoribine], for which the TEAD-luciferase reporter activity is, setting by setting: (compound concentration: 200 nM) inactive: 0.0634; (compound concentration: 2 uM) inactive: -0.553; (compound concentration: 10 uM) inactive: -0.325.
As for `Cc1cccc(CN2CCN(C(c3ccccc3)c3ccc(Cl)cc3)CC2)c1` (centres undefined) [Meclozine hydrochloride], the TEAD-luciferase reporter activity (compound concentration: 2 uM) was inactive: 0.569.
Regarding `Cc1cccc(CN2CCN(C(c3ccccc3)c3ccc(Cl)cc3)CC2)c1` (centres undefined) [Meclizine hydrochloride], the TEAD-luciferase reporter activity is inactive: -0.951 (compound concentration: 200 nM) and inactive: -0.829 (compound concentration: 10 uM).
For `C/C(=N/NC(=S)NN)c1ccccn1`, the TEAD-luciferase reporter activity is inactive: -0.666 (compound concentration: 200 nM), inactive: -2.09 (compound concentration: 2 uM) and inactive: -1.43 (compound concentration: 10 uM).
For `CC1=C(C(=O)O)N2C(=O)[C@@H](NC(=O)[C@H](N)c3cccc(NS(C)(=O)=O)c3)[C@H]2SC1`, in that order: inactive: 1.96, inactive: -1.66 and inactive: -0.114.
Consider `COCCN1CCN(Cc2ccc(-c3n[nH]c4c3C(=O)c3c(NC(=O)NN5CCOCC5)cccc3-4)cc2)CC1`, for which the TEAD-luciferase reporter activity (compound concentration: 200 nM) is inactive: -1.24, the TEAD-luciferase reporter activity (compound concentration: 2 uM) was inactive: -3.57 and the TEAD-luciferase reporter activity (compound concentration: 10 uM) is inactive: -1.5.
As for `NC(=S)N/N=C/c1ncccc1N`, the TEAD-luciferase reporter activity (compound concentration: 200 nM) was inactive: -1.19, the TEAD-luciferase reporter activity (compound concentration: 2 uM) is inactive: 0.923 and the TEAD-luciferase reporter activity (compound concentration: 10 uM) was inactive: -0.978.
For `CC[C@@H](C)Nc1nc(C)nc2c(-c3ccc(OC)nc3C)c(C)nn12`, in that order: inactive: -1.05, inactive: -1.58 and inactive: -0.583.
Turning to `CCCCCCCCCCCCCCCCCCCCCCCCC(=O)O`, the TEAD-luciferase reporter activity was inactive: -0.332 (compound concentration: 200 nM), inactive: 0.985 (compound concentration: 2 uM) and inactive: -0.374 (compound concentration: 10 uM).
As to `CNC(=O)COc1ccccc1OCC(O)CNC(C)(C)C` (centres undefined) [Cetamolol hydrochloride], the TEAD-luciferase reporter activity is, setting by setting: (compound concentration: 200 nM) inactive: -0.145; (compound concentration: 2 uM) inactive: -0.636; (compound concentration: 10 uM) inactive: 0.378.
For `COc1ccc(Cl)c2c1CCCC2N(C)C` (centres undefined), in that order: inactive: 2.46, inactive: -0.558 and inactive: 0.544.
For `Cc1ccc(-n2ccnc2)cc1C(=O)c1c(C)cc(C(=O)O)cc1C`, in that order: inactive: -1.79, inactive: -1.66 and inactive: 0.285.
The like results for `CCCc1nc(C)c2c(=O)[nH]c(-c3cc(S(=O)(=O)N4CCN(CC)CC4)ccc3OCC)nn12` [vardenafil hydrochloride] were, in that order, inactive: -1.21, inactive: -0.0997 and inactive: 3.34.
`Nc1ccc(/C=C/C(=O)NCc2cc3cc(-c4ccc(C(=O)N5CCC(F)(F)CC5)cc4)cc(-c4ccc(F)cc4)c3o2)cn1`: the TEAD-luciferase reporter activity reads like this: (compound concentration: 200 nM) inactive: -0.213; (compound concentration: 2 uM) inactive: -0.744; (compound concentration: 10 uM) inactive: 2.62.
The like results for `Nc1ncnc2c1ncn2CCNCCCCCO` were, in that order, inactive: -0.652, inactive: -0.231 and inactive: 0.0358.
The like results for `COc1cc2cc(/C(N)=N\O)sc2cc1OC` were, in that order, inactive: -0.318, inactive: -1.57 and active: 9.7.
Consider `CC(C)(C)NC(=O)[C@@H]1C[C@@H]2CCCC[C@@H]2CN1C[C@@H](O)[C@H](Cc1ccccc1)NC(=O)[C@@H](NC(=O)COc1cccnc1)C(C)(C)S(C)(=O)=O`, for which the TEAD-luciferase reporter activity is, setting by setting: (compound concentration: 200 nM) inactive: 0.969; (compound concentration: 2 uM) inactive: -0.882; (compound concentration: 10 uM) inactive: -1.54.
For the compound `CC(C)c1ccc2oc3nc(N)c(C(=O)O)cc3c(=O)c2c1` [amlexanox, nasal], for the setting “compound concentration: 2 uM”, the TEAD-luciferase reporter activity is inactive: -0.74.
For `CC(C)c1ccc2oc3nc(N)c(C(=O)O)cc3c(=O)c2c1`, the TEAD-luciferase reporter activity by setting is: (compound concentration: 200 nM) inactive: -1.27; (compound concentration: 10 uM) inactive: -1.61.
As for `CC(C)(C)NC(=O)c1ccc(Oc2cc(F)c(CC(=O)O)cc2Cl)c(NS(=O)(=O)c2ccc(C#N)cc2)c1`, the TEAD-luciferase reporter activity (compound concentration: 200 nM) is inactive: -0.969, the TEAD-luciferase reporter activity (compound concentration: 2 uM) was inactive: -0.67 and the TEAD-luciferase reporter activity (compound concentration: 10 uM) was inactive: -1.09.
`O=C1Nc2ccccc2CN(CC2CCCCC2)C12CCNCC2`: the TEAD-luciferase reporter activity was inactive: -1.68 (compound concentration: 200 nM) and inactive: -0.528 (compound concentration: 10 uM).
For `CN(c1ccc(Cl)cc1)c1cc[n+](Cc2ccc(-c3ccc(C[n+]4ccc(N(C)c5ccc(Cl)cc5)c5ccccc54)cc3)cc2)c2ccccc12`, the TEAD-luciferase reporter activity reads like this: (compound concentration: 200 nM) inactive: -0.702; (compound concentration: 2 uM) inactive: -1.14; (compound concentration: 10 uM) inactive: -1.07.
On to `CCCCCCCCCCCCCCOc1ccc(C(=O)O)o1`, for which the TEAD-luciferase reporter activity (compound concentration: 200 nM) was inactive: -2.04, the TEAD-luciferase reporter activity (compound concentration: 2 uM) was inactive: -0.605 and the TEAD-luciferase reporter activity (compound concentration: 10 uM) is inactive: 0.259.
The like results for `CC1N(CC(=O)c2ccccc2)CCCC1(C)c1ccc(O)cc1` (centres undefined) were, in that order, inactive: -0.227, inactive: 0.259 and inactive: -1.01.
For `N=C(N)NCCC[C@@H](NC(=O)C1CCCN1C(=O)[C@@H]1CSSCCC(=O)N[C@@H](Cc2ccc(O)cc2)C(=O)N[C@@H](Cc2ccccc2)C(=O)N[C@@H](CCC(N)=O)C(=O)N[C@@H](CC(N)=O)C(=O)N1)C(=O)NCC(N)=O` (some centres undefined) [desmopressin], in that order: inactive: -1.74, inactive: 0.285 and inactive: 1.19.
Consider `CCOC(=O)C1=C(C)NC(C)=C(C(=O)OCC)C1c1ccccc1/C=C/C(=O)OC(C)(C)C` [lacidipine], for which the TEAD-luciferase reporter activity reads like this: (compound concentration: 200 nM) inactive: -1.01; (compound concentration: 2 uM) inactive: -1.82; (compound concentration: 10 uM) inactive: -2.49.
As for `O=C(OC12CC3CC(CC(C3)C1)C2)c1ccc(NCc2cc(O)ccc2O)cc1`, the TEAD-luciferase reporter activity by setting is: (compound concentration: 200 nM) inactive: -0.826; (compound concentration: 2 uM) inactive: -0.487; (compound concentration: 10 uM) active: 5.46.

These data come from the supplement of paper PMC10735217.
